Data as given in article doi:10.1101/2024.09.26.615107.
No constants are given. Whether binding was seen depends on the method and setting. In cells and extracts the contact can be indirect. Some entries that bind do so weakly or less than the wild type.

Molecular target: T1, FRMD8 (FERM domain-containing protein 8) (UniProt Q3UFK8)
T1 sequence: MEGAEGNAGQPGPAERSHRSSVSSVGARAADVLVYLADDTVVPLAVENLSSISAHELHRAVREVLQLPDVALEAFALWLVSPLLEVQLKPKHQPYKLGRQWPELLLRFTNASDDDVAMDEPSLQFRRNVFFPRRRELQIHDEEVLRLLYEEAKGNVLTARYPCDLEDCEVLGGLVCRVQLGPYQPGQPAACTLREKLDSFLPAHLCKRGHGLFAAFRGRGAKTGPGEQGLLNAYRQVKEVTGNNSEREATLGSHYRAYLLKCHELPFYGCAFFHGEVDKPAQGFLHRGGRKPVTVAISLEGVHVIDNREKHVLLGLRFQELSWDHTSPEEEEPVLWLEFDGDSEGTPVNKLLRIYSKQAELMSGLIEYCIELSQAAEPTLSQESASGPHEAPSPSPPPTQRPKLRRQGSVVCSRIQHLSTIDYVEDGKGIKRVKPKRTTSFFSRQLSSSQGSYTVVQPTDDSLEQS
Experiment: co-IP

B1: iRhom2 (protein, UniProt Q80WQ6 1-827)
chain: MASADKNGSNLPSVSGSRLQSRKPPNLSITIPPPESQAPGEQDSMLPERRKNPAYLKSVSLQEPRGRWQEGAEKRPGFRRQASLSQSIRKSTAQWFGVSGDWEGKRQNWHRRSLHHCSVHYGRLKASCQRELELPSQEVPSFQGTESPKPCKMPKIVDPLARGRAFRHPDEVDRPHAAHPPLTPGVLSLTSFTSVRSGYSHLPRRKRISVAHMSFQAAAALLKGRSVLDATGQRCRHVKRSFAYPSFLEEDAVDGADTFDSSFFSKEEMSSMPDDVFESPPLSASYFRGVPHSASPVSPDGVHIPLKEYSGGRALGPGTQRGKRIASKVKHFAFDRKKRHYGLGVVGNWLNRSYRRSISSTVQRQLESFDSHRPYFTYWLTFVHIIITLLVICTYGIAPVGFAQHVTTQLVLKNRGVYESVKYIQQENFWIGPSSIDLIHLGAKFSPCIRKDQQIEQLVRRERDIERTSGCCVQNDRSGCIQTLKKDCSETLATFVKWQNDTGPSDKSDLSQKQPSAVVCHQDPRTCEEPASSGAHIWPDDITKWPICTEQAQSNHTGLLHIDCKIKGRPCCIGTKGSCEITTREYCEFMHGYFHEDATLCSQVHCLDKVCGLLPFLNPEVPDQFYRIWLSLFLHAGIVHCLVSVVFQMTILRDLEKLAGWHRISIIFILSGITGNLASAIFLPYRAEVGPAGSQFGLLACLFVELFQSWQLLERPWKAFFNLSAIVLFLFICGLLPWIDNIAHIFGFLSGMLLAFAFLPYITFGTSDKYRKRALILVSLLVFAGLFASLVLWLYIYPINWPWIEYLTCFPFTSRFCEKYELDQVLH
B1 was tested, and the binding was “binds”.
